Assay results from US20080213377A1, “Delivery of Nanoparticles and/or Agents to Cells” (priority 2006, published 2008).
The name of at least one read-out is uncertain.

Target: T1, MMP-2 (Homo sapiens, UniProt P08253)
T1 sequence (P08253 110-660): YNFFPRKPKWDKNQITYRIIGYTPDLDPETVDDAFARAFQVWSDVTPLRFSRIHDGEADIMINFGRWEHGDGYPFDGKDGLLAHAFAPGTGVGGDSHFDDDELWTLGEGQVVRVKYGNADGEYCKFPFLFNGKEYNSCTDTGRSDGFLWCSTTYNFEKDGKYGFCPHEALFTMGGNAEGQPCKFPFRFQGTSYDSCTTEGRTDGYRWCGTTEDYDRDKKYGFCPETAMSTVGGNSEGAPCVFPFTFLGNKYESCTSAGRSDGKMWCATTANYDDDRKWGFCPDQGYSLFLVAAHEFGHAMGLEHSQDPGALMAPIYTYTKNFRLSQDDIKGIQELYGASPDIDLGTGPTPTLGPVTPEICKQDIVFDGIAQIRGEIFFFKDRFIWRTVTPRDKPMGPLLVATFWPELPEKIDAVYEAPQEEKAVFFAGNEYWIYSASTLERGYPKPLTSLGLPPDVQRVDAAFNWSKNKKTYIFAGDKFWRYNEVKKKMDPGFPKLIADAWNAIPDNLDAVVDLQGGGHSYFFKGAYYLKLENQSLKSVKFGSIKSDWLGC
Assay: Kcat/Km determination of substrate cleavage by MMP-2
Details: cleavage of the substrate by MMP-2 over time

Substance: NH2-G-K(TAMRA)-G-P-L-G-V-R-G-C—CONH2 (GPLGVRGC; N-terminal G-K(TAMRA), C-terminal amide) [free peptide]
- Kcat/Km: 7420 M⁻¹ s⁻¹
